{
  "source": "patent US5596016A",
  "about": "“1,2-disubstituted aromatic chelates” (Albion International, Inc., priority 1994, dated 1997)",
  "assay": "Iron excretion after oral dosing, sample weighed in grams (Table 2, headed Urine; evidently feces)",
  "assay_type": "in vivo, rats",
  "details": "one gram sample of 15% iron",
  "procedure": "Bioavailability: One gram samples of each of the above iron vanillin chelates and ferrous sulfate sales were administered orally to rats as a slurry consisting of one gram of sample contained in 4 ml of water. The samples were given via a syringe fitted with a balled needle and injected into the stomach of the animals. Each one gram sample of 15% iron would deliver 150 mg of Fe which is ten times the recommended daily allowance of iron for a human being of average size. Obviously, such a dosage is many times higher than required for the test animals considering that the rats weighed an average of about 125 grams each. One sample of two grams of chelate suspended as a slurry in 8 ml of water was found too be too much volume and overfilled the stomach of the rat resulting in the loss of some of the dosage.\nThe animals were observed over a two day (48 hour) period and their urine and feces were collected. At the end of the 48 hour period the animals were sacrificed and blood samples were taken.\nThere follows a comparison of the urine, feces and blood tests taken from the rats at 24 and 48 hours post dosage.",
  "data": [
    {"substance": "ferrous sulfate [FeSO4]", "values": [
      {"measurement": "Urine: Total Gm Sample", "setting": "24 hours", "result": 1.5, "unit": "g"},
      {"measurement": "Urine: Total Gm Sample", "setting": "48 hours", "result": 2.6, "unit": "g"}
    ]}
  ]
}
